These are yes or no findings as the source states them, for the method shown. Some binding calls cover weakened binding; strength is not graded here.

In the experiment the target is macaque CD47-Fc (macaque). Put plainly: ELISA on coated macaque CD47-Fc. (ELISA stands for enzyme-linked immunosorbent assay.)

B1: Antibody 17 (antibody, human IgG1, kappa, V domains shown)
VH: QVQLQESGPGLVKPSETLSLTCTVSGGSLDNYYWSWIRQPPGKGLEWIGYIYYSGNTNYNPSLKSRVTISVDTSKNQFSLRLRSVTAADTAVYYCARGGRFLERYWGQGTLVTVSS
VL: DIQMTQSPSSVSASVGDRVTISCRANQAIGTWLAWYQQKPGKAPKLLIYAASTLQSGVPSRFSGSGSGTEFTLTISSLQAEDVAVYYCQQYYTTPLTFGGGTKLEIKR
Take B1: the binding result was “binds”.

These data come from patent US20230303711A1.
